Test results from PMC7211001.
Results are given in words; binding and its absence hold for the method and conditions named. In cells and extracts the contact can be indirect. Some results given as binding are weak or reduced against the parent protein; the word gives no strength. Tags and fused reporters may be left off the sequences shown.

Tests used:
[1] = biological target: Flag-p62 wt (sequestosome 1; Sqstm1) (UniProt Q64337); assay: co-IP; HEK293T cells co-transfected with Flag-p62 (wt or Δ69-251) and HA-ATF2 for 24 h; with or without isoproterenol (10 μM, half an hour before collection); 1500 μg lysate with anti-Flag-agarose overnight; blot for HA and Flag
Flag-p62^Δ69-251 = Flag-p62^Δ69-251 (UniProt Q64337); assay: as above

B1: HA-ATF2 (activating transcription factor 2) (protein, UniProt P16951 1-487)
chain: MSDDKPFLCTAPGCGQRFTNEDHLAVHKHKHEMTLKFGPARNDSVIVADQTPTPTRFLKNCEEVGLFNELASPFENEFKKASEDDIKKMPLDLSPLATPIIRSKIEEPSVVETTHQDSPLPHPESTTSDEKEVPLAQTAQPTSAIVRPASLQVPNVLLTSSDSSVIIQQAVPSPTSSTVITQAPSSNRPIVPVPGPFPLLLHLPNGQTMPVAIPASITSSNVHVPAAVPLVRPVTMVPSVPGIPGPSSPQPVQSEAKMRLKAALTQQHPPVTNGDTVKGHGSGLVRTQSEESRPQSLQQPATSTTETPASPAHTTPQTQNTSGRRRRAANEDPDEKRRKFLERNRAAASRCRQKRKVWVQSLEKKAEDLSSLNGQLQSEVTLLRNEVAQLKQLLLAHKDCPVTAMQKKSGYHTADKDDSSEDLSVPSSPHTEAIQHSSVSTSNGVSSTSKAEAVATSVLTQMADQSTEPALSQIVMAPPSQAQPSGS
[1]
  binding: binds
Flag-p62^Δ69-251
  binding: binds
